Data on three substances can be found in paper PMC5749289 (Oxidative Medicine and Cellular Longevity, 2017).

The nature of this data set: general procedure: Fmoc solid-phase peptide synthesis; 2-chloro trityl resin; DEPBT/DIPEA (chain assembly); PyBOP/DIPEA (macrocyclisation). Conditions: cyclisation step.

Consider “HELM PEPTIDE1{L.L.[meL].W.[meL]}$PEPTIDE1,PEPTIDE1,1:R1-5:R2$$$V2.0 (SMILES CC(C)C[C@@H]1NC(=O)[C@H](CC(C)C)N(C)C(=O)[C@H](Cc2c[nH]c3ccccc23)NC(=O)[C@H](CC(C)C)N(C)C(=O)[C@H](CC(C)C)NC1=O)”, for which the cyclisation yield is 55.5%.

The substance cyclo(Nal-N-Me-Leu-Leu-Leu-N-Me-Leu) returned a cyclisation yield of 58.5%.

For the substance cyclo(Phe-N-Me-Leu-Leu-Leu-N-Me-Leu), the cyclisation yield was 60.9%.
